# The whole screen tested about 360,000 compounds, of which about 9,100 (2.5%) were called active. Inconclusive means that the source gave no clear call. Such entries were picked first, then a sample of the others. Cut-off read from the data, not from the text of the source: active = max response below about -50%; inconclusive = no clear call, values can overlap the other calls; inactive = above that.
# Protein sequences, listed by entry. Tags and fused reporters are not part of them.
# UniProt P35462, whole entry, looked up: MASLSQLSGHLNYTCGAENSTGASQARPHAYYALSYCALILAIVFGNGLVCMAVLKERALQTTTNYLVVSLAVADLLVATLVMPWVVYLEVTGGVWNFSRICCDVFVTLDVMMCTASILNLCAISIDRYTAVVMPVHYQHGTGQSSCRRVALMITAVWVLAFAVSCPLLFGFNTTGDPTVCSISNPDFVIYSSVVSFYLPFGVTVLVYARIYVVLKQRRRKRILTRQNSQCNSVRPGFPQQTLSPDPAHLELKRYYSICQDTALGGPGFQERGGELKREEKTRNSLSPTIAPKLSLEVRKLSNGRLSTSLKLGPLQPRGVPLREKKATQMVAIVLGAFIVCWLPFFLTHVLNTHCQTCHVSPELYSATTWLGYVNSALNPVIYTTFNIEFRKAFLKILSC
# Target: D(3) dopamine receptor (Homo sapiens) (UniProt P35462)
# Assay: qHTS of D3 Dopamine Receptor Antagonist: qHTS
# Settings: D3R cells, DiscoveRx beta-arrestin luminescence, antagonist mode; stronger effect = lower value
# In short: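 Cells plated overnight at 1500 cells/well, then exposed to library compounds with dopamine controls for 90 minutes at 37 degrees C. DiscoveRx reagent added for 30–60 minutes at room temperature; luminescence read, quantitative HTS format.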
# % is set by controls: 0 for no effect and ±100 for the full control effect.
row,SMILES,"max response, negative = inhibition"
1,COc1cccc(C2CC(C(F)(F)F)n3nc(C(=O)Nc4c(C)n(C)n(-c5ccccc5)c4=O)cc3N2)c1 (centres undefined),active: -86.8%
2,N#CC1=C(N)NC(=S)C(C(N)=O)C1c1ccc(Cl)cc1Cl (centres undefined),inconclusive: -34.6%
3,COC(=O)CSc1nc2cc3c(cc2cc1C#N)OCO3,inconclusive: -38.6%
4,CCn1c2ccccc2c2cc(CN3CCN(Cc4cc(OC)ccc4O)CC3)ccc21,inconclusive: -35.9%
5,C[C@@H]1CN([C@H](C)CO)C(=O)CCCn2nncc2CO[C@@H]1CN(C)S(=O)(=O)c1ccc(Cl)cc1,inconclusive: -31.1%
6,Cc1cccc(NS(=O)(=O)c2ccc(C(=O)N3CCCC3)cc2)c1C,inconclusive: -36.8%
7,Clc1ncccc1OCc1ccccc1,inconclusive: -32.6%
8,Nc1ccccc1Nc1ccncc1[N+](=O)[O-],inconclusive: -38.7%
9,CCOC(=O)c1c(C)[nH]c(C(=O)OCC(=O)N2CCN(S(=O)(=O)c3ccc(C)cc3C)CC2)c1C,inactive: 23.9%
10,O=C(Cn1c2c(sc1=O)C1c3ccccc3OCC1CS2)Nc1ccc(Cl)c(Cl)c1 (centres undefined),inconclusive: -44.6%
11,CCCCN(C)C(=O)C1CCN(CCCc2ccccc2)CC1,inconclusive: -30.3%
12,CC1(C)CC(=O)C2=C(C1)Oc1ncn(CCCO)c(=N)c1C2c1ccccc1 (centres undefined),inconclusive: -30.5%
13,O=C(CNCc1ccc(Cl)cc1)Nc1cccc(C(=O)O)c1,inconclusive: -34.3%
14,Cc1cc(NC2CCCCC2)nc2ccccc12,active: -66.6%
15,CC(C)OC(=O)NCCOC(=O)Nc1cccc(Cl)c1,inconclusive: -30%
16,Cc1ccc(NC(=O)c2sc3ncnc(N4CCN(c5ccccn5)CC4)c3c2C)c(C)c1,inactive: 32.4%
17,CSc1ccccc1NC(=O)c1c(Br)cnn1C,inactive: 0%
18,COc1ccc2oc(C(=O)OC(C)C(=O)N(C)c3ccccc3)c(C)c2c1 (centres undefined),inactive: -14.1%
19,CC(C)/C=C/CN1CCN(CCCc2ccccc2)C(CCO)C1 (centres undefined),active: -63%
20,Cc1cc(C)nc(Sc2ccc3nnnn3n2)n1,inconclusive: -30.8%

row,SMILES,"max response, negative = inhibition"
1,COc1cccc(C(=O)O[C@H]2[C@H](Cc3ccccc3)NS(=O)(=O)[C@H]3C[C@@H]4C=C[C@]23O4)c1,active: -52.4%
2,O=C(NCc1ccccc1)c1c(Cl)nc(Cl)c(Cl)c1Cl,inconclusive: -41.4%
3,CC1(Oc2cccc(C#N)c2)CCN(Cc2ccccc2OC(F)F)C1 (centres undefined),active: -88.8%
4,Cc1c(OCC(=O)NCC2CCC(C(=O)O)CC2)ccc2c3c(c(=O)oc12)CCC3 (centres undefined),inconclusive: -32.4%
5,CCOc1ccc2nc(N=NC3=C(O)CC(C)(C)CC3=O)sc2c1,inconclusive: -30.9%
6,CC1CCN(S(=O)(=O)c2ccc(Oc3ccc([N+](=O)[O-])cc3)cc2)CC1,active: -81.1%
7,Cc1cccc(C)c1NC(=O)C1=C(O)c2ccccc2N(C)S1(=O)=O,active: -51.6%
8,O=C1CC(c2ccsc2)Sc2ccccc2N1 (centres undefined),inactive: -12.1%
9,Clc1cc(NCc2cccs2)ccc1N1CCOCC1,inconclusive: -37.6%
10,O=C(Nc1cnn(C23CC4CC(CC(C4)C2)C3)c1)c1cc(-c2ccccc2)on1,inconclusive: -41.4%
11,Cc1cccc(NC2=C(NC(=O)c3ccccc3)C(=O)c3ccccc3C2=O)c1,inconclusive: -39.5%
12,CC1=NN(c2ccccc2)C(=O)/C1=C/N(C)C,inactive: 7.82%
13,O=C(CN1CCN(c2ccccc2)CC1)Nc1ccc(OCc2ccccc2)cc1,inconclusive: -37.3%
14,Cc1cc(C)c2c(=O)[nH]c(SCc3ccccc3)nc2n1,inconclusive: -30.9%
15,CC(C)CCNC(=O)c1ccc2c(c1)N(C)C(=O)c1ccccc1S2,active: -72.3%
16,Cc1cc(C)nc(SCc2cc(=O)c(OC(=O)c3ccc(S(=O)(=O)N(C)C)cc3)co2)n1,inactive: -10.6%
17,COc1ccc(NC(=O)N(CCN2CCCC2)Cc2cc3cc(OC)c(OC)cc3[nH]c2=O)cc1,inconclusive: -30.1%
18,O=C(c1ccccc1)c1ccccc1C(=O)N1CCCC1,active: -50.2%
19,OCCN1CCN(CC(O)COc2ccc(Cl)cc2)CC1 (centres undefined),inconclusive: -32.8%
20,CCN(CCn1cccn1)Cc1ccccc1OCC(O)CN1CCc2ccccc2C1 (centres undefined),active: -57.7%

# Exported with tabs: part of the list above.
row	SMILES	max response, negative = inhibition
3	COC(=O)CSc1nc2cc3c(cc2cc1C#N)OCO3	inconclusive: -38.6%
4	CCn1c2ccccc2c2cc(CN3CCN(Cc4cc(OC)ccc4O)CC3)ccc21	inconclusive: -35.9%
5	C[C@@H]1CN([C@H](C)CO)C(=O)CCCn2nncc2CO[C@@H]1CN(C)S(=O)(=O)c1ccc(Cl)cc1	inconclusive: -31.1%
6	Cc1cccc(NS(=O)(=O)c2ccc(C(=O)N3CCCC3)cc2)c1C	inconclusive: -36.8%

# Next part.

row,SMILES,"max response, negative = inhibition"
1,CCOC(=O)C1(CC2CCCCO2)CCN(Cc2nc(-c3cccs3)oc2C)CC1 (centres undefined),active: -99%
2,O=C(CCc1ccccc1)Nc1nc2ccc(S(=O)(=O)N3CCOCC3)cc2s1,inconclusive: -31.3%
3,CCOC(=O)c1c(C)[nH]c(-c2csc(N)n2)c1C,inconclusive: -32.3%
4,Cc1ccc2nc(=O)c(NNc3ccccc3)cnc2c1,inactive: 30.4%
5,CCN1/C(=C/C(C)=O)Sc2ccc(OC)cc21,inactive: 0.393%
6,COc1ccccc1NC(=O)Nc1ccc2c(c1)OCCO2,inconclusive: -34%
7,O=C(O)c1ccccc1C(=O)N1CCN(c2ccccc2)CC1,inconclusive: -38.7%
8,CN(C)/N=C/c1cc(Cl)cc([N+](=O)[O-])c1O,active: -79.8%
9,CCOC(=O)C1(S(=O)(=O)c2ccc(Cl)cc2)CCN(Cc2ccccc2)CC1,inconclusive: -37.7%
10,Fc1ccc(NC(=S)Nc2ccc(F)c(Cl)c2)cc1Cl,inconclusive: -35.6%
11,CSc1cccc(NC(=O)/C=C/c2ccc(Cl)cc2)c1,inconclusive: -40.9%
12,O=C(NCCc1ccccc1)C1Cc2c(-c3ccccc3Oc3ccccc3)ccnc2O1 (centres undefined),inactive: -22.8%
13,C#C[C@]1(OC(C)=O)CCC2C3CCC4=CC(=O)CC[C@@H]4C3CC[C@@]21C (some centres undefined),inactive: 4.52%
14,CCOC(=O)C1CCN(C(=O)CC(C)c2ccccc2)CC1 (centres undefined),inactive: 10.2%
15,CC1=C(C(N)=O)C(c2ccccc2F)NC(=O)N1 (centres undefined),inconclusive: -45.9%
16,CC(NCC(O)COCc1cccs1)C1CC2CCC1C2 (centres undefined),inconclusive: -32.2%
17,Cc1ccsc1C(=O)c1sccc1C,inconclusive: -30.7%
18,CC(COc1ccccc1)N1CCC(CO)(Cc2ccccc2)CC1 (centres undefined),active: -88.9%
19,COc1ccc(C(CNC(=O)c2ccc(S(=O)(=O)N3CCOCC3)cc2)N2CCCCC2)cc1 (centres undefined),inconclusive: -35.6%
